Compound in the assay: CCc1cnccc1C(=O)Nc1cc2c(cc1F)NC(=O)CC2
Nature of the assay: melting temperature shift (DMSO Tm minus MBE1-treated Tm) in cellular thermal proteome profiling; higher = less thermal stabilization by MBE1 (negative = stabilized by MBE1). The note with it: A375.

Sequences of proteins named here, by UniProt entry; tags and fusion partners are left off. A change or cut given only in a name is not applied to a line headed by its entry.
UniProt P34897: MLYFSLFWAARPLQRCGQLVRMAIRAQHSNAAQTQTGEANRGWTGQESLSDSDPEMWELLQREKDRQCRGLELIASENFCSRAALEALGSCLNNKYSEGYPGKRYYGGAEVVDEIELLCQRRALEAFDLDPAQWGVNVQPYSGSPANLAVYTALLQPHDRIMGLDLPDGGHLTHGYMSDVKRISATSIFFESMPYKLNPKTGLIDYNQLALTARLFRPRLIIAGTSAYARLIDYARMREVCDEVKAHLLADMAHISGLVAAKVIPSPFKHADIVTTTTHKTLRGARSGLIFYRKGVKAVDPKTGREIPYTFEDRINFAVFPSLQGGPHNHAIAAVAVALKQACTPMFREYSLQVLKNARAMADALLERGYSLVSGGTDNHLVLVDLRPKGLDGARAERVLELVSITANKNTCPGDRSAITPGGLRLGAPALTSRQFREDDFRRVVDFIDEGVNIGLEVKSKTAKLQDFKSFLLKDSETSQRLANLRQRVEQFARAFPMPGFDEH
UniProt P31937: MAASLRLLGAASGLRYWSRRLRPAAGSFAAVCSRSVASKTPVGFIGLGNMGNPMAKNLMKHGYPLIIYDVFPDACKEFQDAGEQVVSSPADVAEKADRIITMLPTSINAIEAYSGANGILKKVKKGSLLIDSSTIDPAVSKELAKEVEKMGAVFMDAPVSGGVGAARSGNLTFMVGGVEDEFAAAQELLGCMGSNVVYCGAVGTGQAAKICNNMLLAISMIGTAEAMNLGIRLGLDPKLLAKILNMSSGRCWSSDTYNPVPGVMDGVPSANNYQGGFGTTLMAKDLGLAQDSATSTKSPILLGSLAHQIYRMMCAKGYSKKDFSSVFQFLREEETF
UniProt P24666: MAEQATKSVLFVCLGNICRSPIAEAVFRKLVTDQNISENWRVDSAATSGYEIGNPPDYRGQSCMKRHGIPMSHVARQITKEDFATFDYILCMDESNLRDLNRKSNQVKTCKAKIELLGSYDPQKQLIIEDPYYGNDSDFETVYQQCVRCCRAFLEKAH
UniProt P21266: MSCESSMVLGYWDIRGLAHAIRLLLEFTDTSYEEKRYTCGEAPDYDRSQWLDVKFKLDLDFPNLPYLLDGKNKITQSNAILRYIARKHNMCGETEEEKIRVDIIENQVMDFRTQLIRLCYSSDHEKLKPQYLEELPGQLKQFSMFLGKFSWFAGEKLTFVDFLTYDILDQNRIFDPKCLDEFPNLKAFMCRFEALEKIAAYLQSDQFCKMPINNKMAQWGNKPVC
UniProt P36956: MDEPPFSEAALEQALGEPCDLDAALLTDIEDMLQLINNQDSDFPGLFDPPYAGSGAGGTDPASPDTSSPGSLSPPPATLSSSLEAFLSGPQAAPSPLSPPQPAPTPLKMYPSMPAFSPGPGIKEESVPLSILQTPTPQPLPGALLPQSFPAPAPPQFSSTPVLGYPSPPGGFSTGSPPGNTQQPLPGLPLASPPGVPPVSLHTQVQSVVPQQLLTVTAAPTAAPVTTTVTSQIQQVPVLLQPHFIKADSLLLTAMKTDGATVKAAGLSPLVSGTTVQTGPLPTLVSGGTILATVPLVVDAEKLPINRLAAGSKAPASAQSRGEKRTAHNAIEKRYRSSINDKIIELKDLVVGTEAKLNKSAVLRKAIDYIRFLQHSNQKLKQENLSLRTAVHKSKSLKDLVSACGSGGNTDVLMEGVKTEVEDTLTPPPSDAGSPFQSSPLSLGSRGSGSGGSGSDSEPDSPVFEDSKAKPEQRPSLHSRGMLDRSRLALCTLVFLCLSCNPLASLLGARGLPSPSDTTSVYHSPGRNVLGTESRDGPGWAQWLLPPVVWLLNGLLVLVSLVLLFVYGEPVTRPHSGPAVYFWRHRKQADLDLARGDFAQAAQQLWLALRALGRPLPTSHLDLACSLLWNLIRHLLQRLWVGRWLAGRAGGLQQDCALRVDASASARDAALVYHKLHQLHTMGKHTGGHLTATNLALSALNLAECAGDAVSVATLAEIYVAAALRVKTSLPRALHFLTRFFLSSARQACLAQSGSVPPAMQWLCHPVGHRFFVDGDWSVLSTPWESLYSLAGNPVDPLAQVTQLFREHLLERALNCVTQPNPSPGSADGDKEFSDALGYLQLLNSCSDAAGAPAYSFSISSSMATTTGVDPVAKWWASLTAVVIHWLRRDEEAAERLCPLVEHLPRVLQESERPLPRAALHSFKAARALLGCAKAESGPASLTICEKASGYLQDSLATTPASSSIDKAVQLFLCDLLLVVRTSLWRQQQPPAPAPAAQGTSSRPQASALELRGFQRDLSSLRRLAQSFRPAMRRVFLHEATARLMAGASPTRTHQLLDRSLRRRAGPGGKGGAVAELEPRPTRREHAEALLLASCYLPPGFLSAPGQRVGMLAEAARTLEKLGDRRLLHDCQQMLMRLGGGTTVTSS
UniProt P31153, whole entry, looked up: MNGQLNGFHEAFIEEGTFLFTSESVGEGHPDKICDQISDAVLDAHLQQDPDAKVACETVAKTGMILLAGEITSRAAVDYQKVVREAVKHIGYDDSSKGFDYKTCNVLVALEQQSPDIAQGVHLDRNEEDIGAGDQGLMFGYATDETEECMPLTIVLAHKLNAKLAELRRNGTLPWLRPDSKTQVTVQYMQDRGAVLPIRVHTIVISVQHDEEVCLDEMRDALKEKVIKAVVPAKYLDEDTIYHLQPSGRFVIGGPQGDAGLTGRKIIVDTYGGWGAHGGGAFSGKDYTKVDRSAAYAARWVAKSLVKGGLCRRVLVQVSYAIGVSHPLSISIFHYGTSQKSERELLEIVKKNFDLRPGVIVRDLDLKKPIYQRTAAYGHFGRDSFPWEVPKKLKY
UniProt P23434: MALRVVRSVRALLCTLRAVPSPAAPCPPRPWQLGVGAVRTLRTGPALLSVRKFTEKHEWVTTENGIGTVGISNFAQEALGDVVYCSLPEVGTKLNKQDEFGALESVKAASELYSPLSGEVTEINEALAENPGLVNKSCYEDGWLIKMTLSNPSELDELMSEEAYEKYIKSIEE
UniProt P24386: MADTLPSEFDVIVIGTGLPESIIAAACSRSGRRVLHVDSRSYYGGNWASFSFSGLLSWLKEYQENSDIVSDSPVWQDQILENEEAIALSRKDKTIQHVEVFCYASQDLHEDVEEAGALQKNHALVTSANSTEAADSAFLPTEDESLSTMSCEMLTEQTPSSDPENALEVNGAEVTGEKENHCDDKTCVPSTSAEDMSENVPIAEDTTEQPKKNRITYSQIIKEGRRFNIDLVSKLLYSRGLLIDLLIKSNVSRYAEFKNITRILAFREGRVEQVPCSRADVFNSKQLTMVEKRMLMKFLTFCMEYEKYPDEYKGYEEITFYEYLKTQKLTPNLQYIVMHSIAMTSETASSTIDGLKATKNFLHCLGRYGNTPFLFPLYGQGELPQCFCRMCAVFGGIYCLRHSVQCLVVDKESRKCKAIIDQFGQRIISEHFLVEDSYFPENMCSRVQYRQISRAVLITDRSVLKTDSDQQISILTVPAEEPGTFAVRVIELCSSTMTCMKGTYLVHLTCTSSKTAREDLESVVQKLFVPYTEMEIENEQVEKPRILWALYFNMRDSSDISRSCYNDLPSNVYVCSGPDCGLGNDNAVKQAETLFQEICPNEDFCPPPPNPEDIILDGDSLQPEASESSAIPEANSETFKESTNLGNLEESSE
UniProt P33897: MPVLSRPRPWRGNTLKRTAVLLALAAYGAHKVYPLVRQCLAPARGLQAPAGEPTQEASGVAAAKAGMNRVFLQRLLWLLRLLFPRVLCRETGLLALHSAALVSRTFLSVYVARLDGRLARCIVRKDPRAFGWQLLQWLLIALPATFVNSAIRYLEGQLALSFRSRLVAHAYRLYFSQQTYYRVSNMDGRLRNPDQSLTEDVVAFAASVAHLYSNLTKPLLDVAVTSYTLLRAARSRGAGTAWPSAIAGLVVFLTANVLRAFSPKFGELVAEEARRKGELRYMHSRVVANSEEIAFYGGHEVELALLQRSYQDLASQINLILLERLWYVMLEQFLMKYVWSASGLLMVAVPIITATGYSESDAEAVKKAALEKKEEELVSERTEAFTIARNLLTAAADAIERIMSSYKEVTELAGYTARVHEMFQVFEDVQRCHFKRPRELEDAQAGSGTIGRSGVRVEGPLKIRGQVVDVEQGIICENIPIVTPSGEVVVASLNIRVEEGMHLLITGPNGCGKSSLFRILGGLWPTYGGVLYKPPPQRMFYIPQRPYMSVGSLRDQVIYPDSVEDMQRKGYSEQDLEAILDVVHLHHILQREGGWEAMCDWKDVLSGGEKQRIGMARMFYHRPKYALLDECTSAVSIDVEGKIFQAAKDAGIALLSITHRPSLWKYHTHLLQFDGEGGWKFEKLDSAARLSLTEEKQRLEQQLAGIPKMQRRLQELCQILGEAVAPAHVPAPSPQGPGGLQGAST
UniProt P28066: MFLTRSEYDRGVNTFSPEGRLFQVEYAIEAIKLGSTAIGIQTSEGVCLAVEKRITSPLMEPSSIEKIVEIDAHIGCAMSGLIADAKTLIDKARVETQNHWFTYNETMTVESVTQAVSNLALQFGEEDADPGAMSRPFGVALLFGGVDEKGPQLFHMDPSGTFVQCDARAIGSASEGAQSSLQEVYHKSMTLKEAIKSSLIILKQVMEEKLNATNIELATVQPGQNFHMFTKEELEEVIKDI
UniProt P35240: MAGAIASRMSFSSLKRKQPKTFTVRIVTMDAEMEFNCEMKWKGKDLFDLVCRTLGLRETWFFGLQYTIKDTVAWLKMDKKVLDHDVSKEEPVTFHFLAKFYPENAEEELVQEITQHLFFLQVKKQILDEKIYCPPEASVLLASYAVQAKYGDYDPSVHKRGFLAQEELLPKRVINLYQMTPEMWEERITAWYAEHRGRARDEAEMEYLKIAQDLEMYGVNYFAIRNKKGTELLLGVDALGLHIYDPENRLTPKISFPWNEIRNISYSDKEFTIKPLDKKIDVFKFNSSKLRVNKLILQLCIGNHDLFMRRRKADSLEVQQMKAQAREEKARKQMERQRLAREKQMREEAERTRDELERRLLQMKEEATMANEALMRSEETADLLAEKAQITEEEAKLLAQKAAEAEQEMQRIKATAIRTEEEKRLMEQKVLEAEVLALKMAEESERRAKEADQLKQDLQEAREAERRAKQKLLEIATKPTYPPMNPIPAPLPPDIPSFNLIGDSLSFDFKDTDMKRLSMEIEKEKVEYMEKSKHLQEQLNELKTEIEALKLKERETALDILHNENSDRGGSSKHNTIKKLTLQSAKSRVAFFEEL
UniProt P29323: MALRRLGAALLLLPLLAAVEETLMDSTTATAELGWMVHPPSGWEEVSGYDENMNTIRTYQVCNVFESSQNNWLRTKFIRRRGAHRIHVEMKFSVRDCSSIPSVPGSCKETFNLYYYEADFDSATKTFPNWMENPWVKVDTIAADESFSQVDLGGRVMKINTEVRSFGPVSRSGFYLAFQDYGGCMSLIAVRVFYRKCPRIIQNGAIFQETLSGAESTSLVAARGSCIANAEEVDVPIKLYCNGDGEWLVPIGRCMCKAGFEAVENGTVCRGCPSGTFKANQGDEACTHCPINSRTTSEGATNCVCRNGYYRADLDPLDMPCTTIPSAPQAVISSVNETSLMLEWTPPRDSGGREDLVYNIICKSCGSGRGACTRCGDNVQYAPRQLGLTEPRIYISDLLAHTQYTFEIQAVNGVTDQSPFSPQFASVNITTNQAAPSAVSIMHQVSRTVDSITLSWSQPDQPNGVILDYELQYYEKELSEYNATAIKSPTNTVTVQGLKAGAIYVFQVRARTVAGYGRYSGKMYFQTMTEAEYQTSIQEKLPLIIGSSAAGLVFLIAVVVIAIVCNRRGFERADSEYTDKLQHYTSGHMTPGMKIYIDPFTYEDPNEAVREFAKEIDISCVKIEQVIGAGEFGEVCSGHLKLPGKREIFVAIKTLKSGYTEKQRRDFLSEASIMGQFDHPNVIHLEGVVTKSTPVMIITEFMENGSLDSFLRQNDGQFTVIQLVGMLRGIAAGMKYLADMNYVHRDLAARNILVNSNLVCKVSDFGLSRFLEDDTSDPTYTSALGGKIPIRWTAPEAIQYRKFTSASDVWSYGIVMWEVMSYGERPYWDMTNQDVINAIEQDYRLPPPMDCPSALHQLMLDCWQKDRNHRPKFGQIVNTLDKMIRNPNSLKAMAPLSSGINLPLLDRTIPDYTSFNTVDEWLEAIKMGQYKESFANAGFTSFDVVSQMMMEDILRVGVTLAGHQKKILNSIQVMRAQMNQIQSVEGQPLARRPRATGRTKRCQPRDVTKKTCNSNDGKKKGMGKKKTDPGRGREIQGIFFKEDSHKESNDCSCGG
UniProt P25686: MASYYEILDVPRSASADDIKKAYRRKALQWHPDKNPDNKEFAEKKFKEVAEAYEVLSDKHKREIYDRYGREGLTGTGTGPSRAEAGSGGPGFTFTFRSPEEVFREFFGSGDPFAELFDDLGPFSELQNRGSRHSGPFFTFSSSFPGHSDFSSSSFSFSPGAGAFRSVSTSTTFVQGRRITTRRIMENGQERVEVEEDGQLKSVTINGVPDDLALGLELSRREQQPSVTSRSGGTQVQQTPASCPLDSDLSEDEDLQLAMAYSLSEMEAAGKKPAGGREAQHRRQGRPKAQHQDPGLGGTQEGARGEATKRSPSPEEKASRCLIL

Some of the results follow. The data scatter; read single values as rough.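 Many melting curves are irregular; where none melted, Tm was taken as 64 °C.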

On to SHMT2 (UniProt P34897), for which the melting temperature shift (MBE1 concentration: 100 nM) is -1.02 °C and the melting temperature shift (MBE1 concentration: 1 uM) was -1.36 °C.
The matching figures for PYCR1 (UniProt P32322): -1.66 °C and 0.311 °C.
Taken in the same sequence, the figures for EEF1D (UniProt P29692) were 0.238 °C and 0.232 °C.
The matching figures for RPA1 (UniProt P27694): 0.43 °C and -0.299 °C.
Regarding ACO1 (UniProt P21399), the melting temperature shift (MBE1 concentration: 100 nM) was -0.362 °C and the melting temperature shift (MBE1 concentration: 1 uM) came out at 0.698 °C.
The matching figures for U2AF2 (UniProt P26368): 1.3 °C and 0.47 °C.
NFYA (UniProt P23511): the melting temperature shift by setting is: (MBE1 concentration: 100 nM) -0.422 °C; (MBE1 concentration: 1 uM) -2.34 °C.
Taken in the same sequence, the figures for UniProt P28370 were -0.243 °C and -0.0513 °C.
Take HIBADH (UniProt P31937): the melting temperature shift (MBE1 concentration: 100 nM) was -2.69 °C and the melting temperature shift (MBE1 concentration: 1 uM) stood at 0.0855 °C.
Taken in the same sequence, the figures for STIP1 (UniProt P31948) were -0.696 °C and -1.08 °C.
Consider YWHAB (UniProt P31946), for which the melting temperature shift is -0.436 °C (MBE1 concentration: 100 nM) and -0.503 °C (MBE1 concentration: 1 uM).
Taken in the same sequence, the figures for STX2 (UniProt P32856) were -0.295 °C and -0.0738 °C.
Taken in the same sequence, the figures for PML (UniProt P29590) were 0.259 °C and -0.171 °C.
Take PPP1CC (UniProt P36873): the melting temperature shift (MBE1 concentration: 100 nM) was -0.00671 °C and the melting temperature shift (MBE1 concentration: 1 uM) was 0.93 °C.
Consider MCM4 (UniProt P33991), for which the melting temperature shift runs as follows: (MBE1 concentration: 100 nM) 0.788 °C; (MBE1 concentration: 1 uM) 0.244 °C.
On to YY1 (UniProt P25490), for which the melting temperature shift (MBE1 concentration: 100 nM) is -1.51 °C and the melting temperature shift (MBE1 concentration: 1 uM) was -0.372 °C.
Take ACP1 (UniProt P24666): the melting temperature shift (MBE1 concentration: 100 nM) is -0.673 °C and the melting temperature shift (MBE1 concentration: 1 uM) was determined as 0.268 °C.
With DDX6 (UniProt P26196), the melting temperature shift (MBE1 concentration: 100 nM) was -0.165 °C and the melting temperature shift (MBE1 concentration: 1 uM) is 0.678 °C.
Taken in the same sequence, the figures for GDI1 (UniProt P31150) were -0.657 °C and -0.282 °C.
For the target CDC27 (UniProt P30260), the melting temperature shift was -0.749 °C (MBE1 concentration: 100 nM) and 0.916 °C (MBE1 concentration: 1 uM).
The matching figures for GSTM3 (UniProt P21266): -0.819 °C and -0.795 °C.
Taken in the same sequence, the figures for KIF5B (UniProt P33176) were -0.244 °C and 0.403 °C.
The matching figures for UniProt P23743: -0.137 °C and 0.155 °C.
Regarding TARS (UniProt P26639), the melting temperature shift was 0.318 °C (MBE1 concentration: 100 nM) and 0.629 °C (MBE1 concentration: 1 uM).
Take UniProt P20648: the melting temperature shift reads like this: (MBE1 concentration: 100 nM) -0.95 °C; (MBE1 concentration: 1 uM) -0.739 °C.
As to FUS (UniProt P35637), the melting temperature shift runs as follows: (MBE1 concentration: 100 nM) -4.1 °C; (MBE1 concentration: 1 uM) -4.06 °C.
As for SREBF1 (UniProt P36956), the melting temperature shift was -1.2 °C (MBE1 concentration: 100 nM) and -1.51 °C (MBE1 concentration: 1 uM).
As to HMGCL (UniProt P35914), the melting temperature shift came out at 0.651 °C (MBE1 concentration: 100 nM) and 0.541 °C (MBE1 concentration: 1 uM).
Consider MAT2A (UniProt P31153), for which the melting temperature shift is, setting by setting: (MBE1 concentration: 100 nM) -1.66 °C; (MBE1 concentration: 1 uM) 0.372 °C.
The matching figures for GCSH (UniProt P23434): -3.6 °C and 1.37 °C.
On to CLIP1 (UniProt P30622), for which the melting temperature shift runs as follows: (MBE1 concentration: 100 nM) -1.24 °C; (MBE1 concentration: 1 uM) -0.59 °C.
The matching figures for UniProt P23470: 1.18 °C and -0.25 °C.
Taken in the same sequence, the figures for SERPINB1 (UniProt P30740) were -0.262 °C and 0.237 °C.
The matching figures for CHM (UniProt P24386): -0.194 °C and -0.288 °C.
In the case of FKBP2 (UniProt P26885), the melting temperature shift (MBE1 concentration: 100 nM) is -1.29 °C and the melting temperature shift (MBE1 concentration: 1 uM) amounted to 1.04 °C.
The matching figures for CBL (UniProt P22681): -0.396 °C and 0.154 °C.
Taken in the same sequence, the figures for STOM (UniProt P27105) were -2.2 °C and -3.21 °C.
ABCD1 (UniProt P33897): the melting temperature shift was -1.06 °C (MBE1 concentration: 100 nM) and -0.776 °C (MBE1 concentration: 1 uM).
For JAK1 (UniProt P23458), the melting temperature shift runs as follows: (MBE1 concentration: 100 nM) 0 °C; (MBE1 concentration: 1 uM) -0.476 °C.
The matching figures for UniProt P30414: -0.634 °C and -0.295 °C.
The matching figures for MGAT1 (UniProt P26572): -0.663 °C and 0.055 °C.
The matching figures for ATP5F1 (UniProt P24539): -1.73 °C and -0.691 °C.
Take UniProt P25098: the melting temperature shift came to 0.469 °C (MBE1 concentration: 100 nM) and 0.623 °C (MBE1 concentration: 1 uM).
The matching figures for PSMB4 (UniProt P28070): -5.2 °C and -3.58 °C.
Regarding PSMA5 (UniProt P28066), the melting temperature shift reads like this: (MBE1 concentration: 100 nM) -1.22 °C; (MBE1 concentration: 1 uM) -2.45 °C.
On to RPL9 (UniProt P32969), for which the melting temperature shift by setting is: (MBE1 concentration: 100 nM) -2.19 °C; (MBE1 concentration: 1 uM) 3.93 °C.
Taken in the same sequence, the figures for BRD2 (UniProt P25440) were -0.314 °C and -0.352 °C.
The matching figures for UniProt P24821: 1.51 °C and 0.244 °C.
UniProt P23468: the melting temperature shift stood at 1.53 °C (MBE1 concentration: 100 nM) and 0.904 °C (MBE1 concentration: 1 uM).
Taken in the same sequence, the figures for PRDX2 (UniProt P32119) were -0.598 °C and -0.293 °C.
As to NF2 (UniProt P35240), the melting temperature shift is 1.4 °C (MBE1 concentration: 100 nM) and 0.653 °C (MBE1 concentration: 1 uM).
With UniProt P29375, the melting temperature shift reads like this: (MBE1 concentration: 100 nM) 0.476 °C; (MBE1 concentration: 1 uM) 2.25 °C.
EPHB2 (UniProt P29323): the melting temperature shift runs as follows: (MBE1 concentration: 100 nM) -0.738 °C; (MBE1 concentration: 1 uM) 0.104 °C.
PHB (UniProt P35232): the melting temperature shift (MBE1 concentration: 100 nM) was -1.37 °C and the melting temperature shift (MBE1 concentration: 1 uM) was -1.71 °C.
The matching figures for ERCC5 (UniProt P28715): 0.0244 °C and 0.269 °C.
For the target RPL13 (UniProt P26373), the melting temperature shift is, setting by setting: (MBE1 concentration: 100 nM) -0.519 °C; (MBE1 concentration: 1 uM) 0.189 °C.
As for UniProt P35612, the melting temperature shift was -1.97 °C (MBE1 concentration: 100 nM) and -0.0733 °C (MBE1 concentration: 1 uM).
Turning to RDX (UniProt P35241), the melting temperature shift is -0.672 °C (MBE1 concentration: 100 nM) and -0.611 °C (MBE1 concentration: 1 uM).
As to DNAJB2 (UniProt P25686), the melting temperature shift was found to be 0.282 °C (MBE1 concentration: 100 nM) and 0.0366 °C (MBE1 concentration: 1 uM).
In the case of VARS (UniProt P26640), the melting temperature shift runs as follows: (MBE1 concentration: 100 nM) 0.647 °C; (MBE1 concentration: 1 uM) 0.238 °C.

The values are drawn from the supplement of paper PMC12595434, “Development of retinoid nuclear receptor pathway antagonists through targeting aldehyde dehydrogenase 1A3” (iScience, 2025).
